# Reference: PubChem BioAssay AID504467 (National Center for Advancing Translational Sciences (NCATS), 2011)
# The whole screen tested about 330,000 compounds, of which about 7,700 (2.3%) were called active. Inconclusive results, whose numbers are uncertain, are shown with a selection of clear calls. Calls follow the shape of the dose curve; as a rule, active = well fitted inhibition curve with a large enough effect; inconclusive = small, poorly fitted or top-dose-only effect, or effect the other way; inactive = flat fitted curve, though single readings scatter. Where the call is inconclusive, the potency comes from a doubtful curve fit.
# Experiment: qHTS screen for small molecules that inhibit ELG1-dependent DNA repair in human embryonic kidney (HEK293T) cells expressing luciferase-tagged ELG1; also: nearly all actives have a fitted effect of over 55% in size
# Conditions: HEK293T ELG1-luciferase reporter, luminescence, 16 h, DNA damage induced by 5-fluorouridine; activity change, negative = inhibition: at 46.1 µM (top of the series)
# Summary of the method: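 Step one: seed 2,000 cells per well. Step two: pin-transfer compound or DMSO alongside 5-fluorouridine. Step three: incubate 16 hr, 37 °C, 5% CO2. Step four: add ONE-Glo, wait 30 min, read luminescence.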
# % is scaled to controls: 0 for no effect and ±100 for the full control effect; potency is read from the fitted curve at half-maximal effect.
SMILES,Potency,"activity change, negative = inhibition"
COc1cc(OC)cc(-c2c(C#Cc3ccsc3)c3cc(-c4ccc5c(c4)OCO5)ccc3n2C)c1,"inconclusive: 20.6 µM [activator, partial curve, poor fit]",–
Cc1cccc(/C(N)=N/OC(=O)C23CC4CC(CC(C4)C2)C3)c1,"inconclusive: 13 µM [activator, partial curve]",–
COc1cc2c(cc1NC(=O)COc1ccccc1OC)oc1ccccc12,–,inactive: 0%
O=C(NCC1CCCO1)C(Cc1ccccc1)N1C(=O)C2C3C=CC(C4CC34)C2C1=O (stereo unspecified),–,inactive: 2.64%
O=C(N/N=C/C1CC=CCC1)c1cc(Br)ccc1O (stereo unspecified),"inconclusive: 20.6 µM [activator, partial curve, poor fit]",–
COc1ccccc1Cn1c(=O)c2ccccc2n2c(Sc3ncnc4sccc34)nnc12,"inconclusive: 29.1 µM [inhibitor, single point]",–
N#Cc1ccc(OCC(=O)Nc2ccc(N3CCCC3)cc2)cc1,–,inactive: 27%
OCC[C@@H]1C[C@H](O)[C@@H](O)[C@]2(CCc3ccccc3O2)O1,"inconclusive: 23.1 µM [activator, single point]",–
COCCN(C(=O)COC(=O)c1ccccc1NCc1ccco1)c1c(N)n(Cc2ccccc2)c(=O)[nH]c1=O,"inconclusive: 1.83 µM [inhibitor, partial curve]",–
C/C(=N\NC(=O)C(N)=O)c1ccc2c(c1)OCCO2,"inconclusive: 18.3 µM [activator, single point]",–
O=C(c1ccc2ccccc2n1)N1CCN(c2ccccc2Cl)CC1,"inconclusive: 20.6 µM [activator, partial curve]",–
COc1cccc(NC(=O)COc2cccnc2[N+](=O)[O-])c1,"inconclusive: 18.3 µM [activator, partial curve]",–
Cn1nccc1CNC(=O)c1ccnn1C,–,inactive: -1.3%
Cc1ccc(NC(=O)c2cccc(S(=O)(=O)NCc3ccccc3)c2)nc1,"inconclusive: 32.6 µM [inhibitor, single point]",–
COC(=O)[C@@]1(C)[C@H]2C(=O)N(Cc3ccccc3)C(=O)[C@H]2[C@H]2CN=C(SCc3ccc(C#N)cc3)N21,"inconclusive: 18.3 µM [inhibitor, partial curve, poor fit]",–
Cc1onc(NC(=O)NC(=O)c2c(Cl)cccc2Cl)c1Br,–,inactive: 5.17%
Cc1ccc(S(=O)(=O)Oc2ccc(/C=C(/NC(=O)c3ccccc3)C(=O)O)cc2)cc1,–,inactive: 7.7%
Cc1c(Cl)c([N+](=O)[O-])nn1CC(=O)N1CCN(Cc2ccccc2)CC1,–,inactive: -2.04%
CC(=O)OC[C@]12CC[C@H]3[C@@](C)(CC[C@H]4C(C)(C)CCC[C@]34C)[C@@H]1C[C@@H](C1=CC(=O)O[C@@H]1OC(C)=O)O2,–,inactive: 11.3%
CC(C)(C)NC(=O)C(c1ccco1)N(C(=O)Cn1nnc(-c2ccc(F)cc2)n1)c1cccc(F)c1 (stereo unspecified),"inconclusive: 14.6 µM [inhibitor, partial curve]",–
CNC(=O)/C(C#N)=C/c1cc(C)n(-c2ccc(N3CCOCC3)cc2)c1C,"inconclusive: 0.146 µM [activator, full curve]",–
COCCNC(=O)c1cnn2c(C(F)F)cc(-c3ccc(C)cc3)nc12,"inconclusive: 9.2 µM [inhibitor, partial curve]",–

SMILES,Potency,"activity change, negative = inhibition"
CCOC(=O)N1CCN(C(=O)Cn2nc(C)n3nc(-c4ccccc4)cc3c2=O)CC1,–,inactive: -21.3%
O=C(COC(=O)c1ccccc1O)Nc1cc([N+](=O)[O-])ccc1Cl,–,inactive: -6.18%
COc1ccc(/C=C2\SC(=S)N(CCC(=O)N3CCCCC3)C2=O)cc1,–,inactive: 2.98%
Cc1cccc(NC(=O)c2ccc(CN3CCN(Cc4ccccc4)CC3)cc2)c1,–,inactive: 2.99%
O=C1COc2ccc(C(=O)COC(=O)/C=C/c3ccco3)cc2N1,–,inactive: -0.572%
N#Cc1c(-c2ccccc2F)cc(C2CC2)nc1SCC(=O)c1cccs1,–,inactive: -19.5%
COc1ccc(Nc2ccccc2N)cc1,"inconclusive: 29.1 µM [activator, single point]",–
Cc1c(C#N)c(O)n(CCO)c(=O)c1N=Nc1ccccc1,"inconclusive: 1.83 µM [inhibitor, partial curve]",–
Cc1cccc(NC(=O)CCCCCN2C(=O)[C@@H]3Cc4ccccc4CN3C2=O)c1,"inconclusive: 13 µM [inhibitor, partial curve, poor fit]",–
COc1ccccc1N(Cc1ccccc1)S(=O)(=O)c1cccc(C(=O)Nc2ccc(C(C)=O)cc2)c1,–,inactive: 3.18%
COC(=O)[C@]1(C)N[C@H](CN(C)C(=O)Nc2ccc(C(F)(F)F)cc2)[C@@H]2C(=O)N(C)C(=O)[C@@H]21,"inconclusive: 25.9 µM [activator, partial curve, poor fit]",–
CCn1c(=NC(=O)c2ccc(N3C(=O)CCC3=O)cc2)sc2c(OC)ccc(OC)c21,"inconclusive: 14.6 µM [inhibitor, partial curve]",–
COc1ccccc1Nc1nc(C)nc2c1oc1ccccc12,"inconclusive: 20.6 µM [inhibitor, single point]",–
O=c1cc2oc3cc(O)c(O)cc3c(-c3ccccc3[N+](=O)[O-])c-2cc1O,active: 20.6 µM,–
COc1cc(C(=O)Nc2ccc(N(C)C)cc2)cc(OC)c1OC,"inconclusive: 18.4 µM [activator, partial curve]",–
NC(=Nc1ccc(Br)cc1)c1ccccc1,"inconclusive: 14.6 µM [activator, partial curve]",–
COc1ccc(-c2nn(-c3ccccc3)cc2/C=N/Nc2ccc(Cl)c(C(=O)O)c2)cc1OC,"inconclusive: 29.1 µM [activator, single point]",–
COc1cc(/C=C(\C#N)C(=O)Nc2ccccc2)ccc1OCCN1CCOCC1,"inconclusive: 18.3 µM [activator, single point]",–
CCC1CN(C(=O)N2CCC(C(=O)NCc3ccc(OC)cc3OC)CC2)c2ccccc2O1 (stereo unspecified),"inconclusive: 29.1 µM [inhibitor, single point]",–
O=C1C(C=NCc2cccnc2)=C(O)c2ccccc21,"inconclusive: 3.66 µM [activator, full curve]",–
COc1cc2c(cc1OC)CN(C(=S)Nc1ccc(Cl)cc1)CC2,"inconclusive: 0.92 µM [inhibitor, partial curve, poor fit]",–
CCOc1cc(CNCCc2c[nH]c3ccccc23)cc(Cl)c1OCC(N)=O,"inconclusive: 29.1 µM [inhibitor, single point]",–

# Reformatted with bars between the fields: entries from further up.
SMILES | Potency | activity change, negative = inhibition
N#Cc1ccc(OCC(=O)Nc2ccc(N3CCCC3)cc2)cc1 | – | inactive: 27%
OCC[C@@H]1C[C@H](O)[C@@H](O)[C@]2(CCc3ccccc3O2)O1 | inconclusive: 23.1 µM [activator, single point] | –

# Single entries from the results shown:
# In Potency, Cc1c(C#N)c(O)n(CCO)c(=O)c1N=Nc1ccccc1 has the entry inconclusive: 1.83 µM [inhibitor, partial curve]
# In activity change, negative = inhibition, COc1ccccc1N(Cc1ccccc1)S(=O)(=O)c1cccc(C(=O)Nc2ccc(C(C)=O)cc2)c1 has the entry inactive: 3.18%

# Following part

SMILES,Potency,"activity change, negative = inhibition"
COc1ccc(/C=C\C(=O)c2c(O)ccc3c(C)cc(=O)oc23)cc1OC,–,inactive: -16.2%
CN1CCN(c2ccc(NC(=O)c3ccc4c(c3)[nH]c(=O)n4Cc3ccc(F)cc3)cc2)CC1,"inconclusive: 32.6 µM [inhibitor, single point]",–
O=C(Nc1ccc(Cl)cc1)c1nc[nH]c1C(=O)NCCCCNC(=O)c1[nH]cnc1C(=O)Nc1ccc(Cl)cc1,active: 2.91 µM,–
O=C(CN1CCN(C(=O)CNC(=O)c2ccc3c(c2)OCO3)CC1)Nc1cccc(F)c1,"inconclusive: 23.1 µM [activator, partial curve, poor fit]",–
CCOC(=O)c1ccccc1NC(=O)CSC(C)C(=O)Nc1cc(C)on1 (stereo unspecified),"inconclusive: 5.17 µM [inhibitor, single point]",–
Cc1ccc(S(=O)(=O)NCC(=O)OCC(=O)NC2CCCCC2)cc1,"inconclusive: 23.1 µM [activator, partial curve, poor fit]",–
COc1ccc(CCN2C(=O)c3cccc4c(C(=O)N5CCCCC5)ccc(c34)C2=O)cc1OC,active: 3.66 µM,–
O=C(COc1ccc(S(=O)(=O)N2CCCC2)cc1Cl)N1CCN(c2ccccc2)CC1,"inconclusive: 18.4 µM [inhibitor, partial curve, poor fit]",–
C=CCn1c(-c2cc(-c3ccccc3)sc2N)n[nH]c1=S,–,inactive: -6.86%
NC(=O)c1c(NC(=O)c2ccccc2F)sc2c1CCCC2,"inconclusive: 1.83 µM [activator, partial curve]",–
COc1ccc(C2c3c(-c4cc(Cl)c(C)cc4O)n[nH]c3C(=O)N2Cc2cccnc2)cc1OC (stereo unspecified),"inconclusive: 23.1 µM [inhibitor, single point]",–
COc1ccc(N(CC(=O)Nc2ccc(C)c(C)c2)C2=NC3CS(=O)(=O)CC3S2)cc1 (stereo unspecified),–,inactive: 11.7%
CCC1(C)Cc2c(sc3[nH]c(=O)[nH]c(=O)c23)CS1 (stereo unspecified),–,inactive: 7.57%
Cc1ccc2sc(N(CCCN(C)C)C(=O)c3ccc(S(=O)(=O)N(C)Cc4ccccc4)cc3)nc2c1C,"inconclusive: 29.1 µM [inhibitor, single point]",–
CCN(CC)C(=S)SCC(=O)c1ccccc1,"inconclusive: 10.3 µM [activator, partial curve]",–
COc1ccc([C@@H]2[C@@H]3C(=O)N(C(C)(C)C)C(=O)[C@@H]3[C@]3(CC(C)C)C(=O)N(c4cccc(Br)c4)C(=O)N23)cc1,–,inactive: -8.11%
COC(=O)c1ccc2c(c1)N(C)S(=O)(=O)c1cnc(SCC(=O)C(C)(C)C)nc1-2,active: 16.4 µM,–
NS(=O)(=O)c1cc(C(=O)OCC(=O)c2ccc3c(c2)OCCO3)ccc1Cl,–,inactive: 15.4%
Cn1nc(C(=O)Nc2cccc(S(N)(=O)=O)c2)c2ccccc2c1=O,"inconclusive: 18.3 µM [activator, partial curve, poor fit]",–
Cc1ccc(-c2noc(-c3ccno3)n2)cc1,"inconclusive: 6.51 µM [activator, single point]",–
Cc1ccc(CN2CC(C(=O)NNC(=O)c3ccc(F)cc3)CC2=O)cc1 (stereo unspecified),–,inactive: 5.66%
Cc1ccccc1-n1nnnc1Sc1nnnn1-c1ccccc1,"inconclusive: 25.9 µM [inhibitor, single point]",–
